Results: PMC13411936

The chains behind the UniProt entries cited, without tags or fusion partners. Where a name states a change or a piece, a line headed by the entry shows the natural chain unless it says otherwise.
UniProt Q9HZF9: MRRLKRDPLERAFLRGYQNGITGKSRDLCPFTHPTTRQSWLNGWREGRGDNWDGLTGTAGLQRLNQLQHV

Molecular target: BatR-3xFlag (P. aeruginosa PAO1) (UniProt Q9HZF9)
Experiment: affinity purification with mass spectrometry; co-immunoprecipitation of BatR-3xFlag (bait) with PAO1 proteins, mass spectrometry of the precipitate; protocol in S5 Data

B1: Uncharacterized protein PA1069 (protein, UniProt Q9I4Q5 1-764)
chain: MDIWNWVEKLRADLREAGQEQSARLIDELTAYVCDLEVERAEALLPEVKALSRTLNNPWLEIFVRHWEMRNRVGNQLEGETALADAVSLFELANRDDTQACPQSVCVTQDLASCYANVDGPGWVEERIEVCDETLARIDPTWACFHCLSNEKAEALLDDGRGEDALAFLAEQEKKILAAGEEVFDSLLEMRVAILLNLGRAEQALALIGEMEEKVEGAEWNNISQPRRLYKAHGLALLGRDEEALEALLPFSEIAPRYRTIWLRAVYLLLQRTPERNTWDFGGRLQQMLEHYSQKGAHRVVIDVASQAIRLALQRGSVWSARRHLALAEQHAQQLQRDRGASQLLAGLREEIDAAPQQQELPVPAAELLDWLAAQGSEDAPRNPEKEVQWLLQALAERPDDTALREVAASALQACSADDEAIDLLWEYVERHTDEEQQLAYYLLNALLARGEYDQVKRLGRLYADSVPLIALWSEVKLAEKLNDWPELERACQSVLEISPGSLGAHSLLGKALMEQDRFAEAALAYQRLAGKLEEPQSVQWDQMTAASAARDWTMLREVAAGMGMEFAAGDGPIEEDWGWVIVRYIEDGEALDYYARRTGPVTARVLENAPGNRSQRVGDWVVFDAGLIYPAPEDEEERKRFVPTYAMVHVLESGGYSPSWLVDGVYPGDEAFDAFRETLDARGWKVWVHSNRDYQVTDASSGEELRAIYFTVATPAQQAPRDLHQALQEATGQWPHRMCWLRLAEAAEVDTQPHLDAIERYGL
  binding: binds

These are yes or no findings as the source states them, for the method shown. Binding seen in cells or lysates may run through a third protein. Here binding means that the protein was enriched with, or labelled near, the bait; the list need not be complete.
